Measured values: ChEMBL document CHEMBL4296182, “CO-ADD screening of NIH NCI Diversity Set V”
This is one part of the list. Measured potencies and affinities stand elsewhere.

tested on: Pseudomonas aeruginosa; settings: Concentration 20 uM; ASSAY_TEST Inhibition of Bacterial Growth; detection method Absorption (OD600); MEDIA CAMHB; plate type 384well; NBS; CORNING #3640; time 18 hr

Point of comparison: `O=C(Nc1ccc(Cl)c([N+](=O)[O-])c1)Nc1nc2ccccc2s1`, Inhibition 15.38%. Against it:
- CCCn1cnc2c(Sc3c([N+](=O)[O-])ncn3C)nc(N)nc21 — lower, 8.99%
- O=C1CSC(c2cccs2)N1c1nncs1 (stereo unspecified) — higher, 23.66%
- O=[N+]([O-])c1cc2cccnc2c2ncccc12 — higher, 15.65%
- CNC1(C(N)=O)CCNCC1 — higher, 26.22%
- O=[N+]([O-])c1ccc(Cn2cnc3c(O)ncnc32)cc1 — lower, 1.92%
- NS(=O)(=O)c1cc2c(cc1Cl)NC(Cc1ccccc1)NS2(=O)=O (stereo unspecified) [BENZYLHYDROCHLOROTHIAZIDE] — higher, 23.15%
- Cc1ccc(N2CCN(CC(O)COc3cccc(C)c3)CC2)cc1 (stereo unspecified) — higher, 17.93%
- O=C(c1ccccc1)C1C(c2ccccc2)C1[N+](=O)[O-] (stereo unspecified) — lower, -7.45%
- NC(=O)c1cc(C(N)=O)nc(Cl)n1 — higher, 24.63%
- Cn1nc(SCc2ccccc2)c(=O)n(C(c2ccccc2)c2ccccc2)c1=O — lower, 13.4%
- NC(=O)c1ccc(/N=N/c2c(O)c3ccccc3[nH]c2=O)cc1 — higher, 16.43%
- O=NC1=C(c2cccc([N+](=O)[O-])c2)Nc2ccccc2S1 — lower, 5.05%
- Nc1nc(O)c2nn(-c3ccccc3)nc2n1 — lower, 3.9%
- CC(C)(C)c1ccc(OC(=O)c2ccccc2)cc1 — lower, 5.69%
- CCOC(=O)Nc1ccc2nc(N3CCCCCC3)sc2c1 — higher, 25.9%
- O=C(NC(=S)Nc1cccc2c(O)cccc12)c1cccc(Br)c1 — lower, 11.01%
- CCOc1cc2c(Cl)ncnc2c(OCC)c1OCC — lower, 3.9%
- CCC(C)Nc1nc2c(c(=O)n(C)c(=O)n2C)n1C (stereo unspecified) — lower, 3.33%
- CC(O)c1nc2c(c(=O)n(C)c(=O)n2C)n1C (stereo unspecified) — lower, 7.16%
- NC(=O)c1ccccc1OCC(=O)Nc1ccc(Cl)c(Cl)c1 — higher, 15.81%
- O=C(Nc1cccc2c1N(C(=O)c1ccco1)CCC2)c1ccco1 — higher, 24.14%
- CC1=C(c2ccccc2)C=NNCC1=O — higher, 28.49%
- Cn1ncc2c(Nc3ccccc3Cl)nc(Nc3ccccc3Cl)nc21 — higher, 23.15%
- CN(C)c1ccc2c(c1)Sc1cc(N(C)C)ccc1N2C(=O)c1ccccc1 — higher, 29.58%
- COc1ccc(/N=N/c2c(N)n[nH]c2N)cc1 — lower, 4.62%
- CSc1c(N(C)C)c(=O)c1=S — lower, 13.32%
- Cc1ccccc1NC(=O)C(=O)Nc1ccccc1C — lower, 13.87%
- O=c1[nH]c2c(cnn2-c2ccc(Cl)cc2)c(=O)n1-c1cccc(Cl)c1 — higher, 24.13%
- OC(COc1cccc2ccccc12)CN1CCN(c2ccccc2Cl)CC1 (stereo unspecified) — lower, -4.41%
- CN1N=C/C(=C/NC(N)=O)C1=O — higher, 21.15%
- CCOC(=O)/C(=N\O)C1=CSC2=NNC(C)(C)N12 — higher, 16.63%
- Cn1c(=O)c2nc(COc3ccc(C(C)(C)C)cc3)[nH]c2n(C)c1=O — lower, 2.59%
- Oc1ccc(Cc2ccc(Cl)cc2)c(O)c1 — lower, 5.78%
- CCCCOc1ccc(OC(=O)Nc2cc(Cl)ccc2OC)cc1 — higher, 19.42%
- OC(COc1ccc(Cl)cc1)CN1CCN(c2cccc(Cl)c2)CC1 (stereo unspecified) — higher, 27.25%
- CCOC(=O)CCCN(c1[nH]c(C)c(C)c1C#N)S(=O)(=O)c1ccc(C)cc1 — higher, 22.67%
- O=C(O)c1ccc2c(c1Sc1ccccc1)C(=O)c1ccccc1C2=O — lower, 4.07%
- COc1ccc(CC(=O)c2ccc(O)cc2O)cc1 [ONONETIN] — lower, 3.61%
- Cc1ccc(Nc2nnc(S)s2)cc1F — lower, 3.77%
- CN(C)c1ccc(/C=C/C(=O)c2cc(Cl)ccc2O)cc1 — higher, 21.55%
- c1ccn(CCc2ccncc2)c1 — lower, 14.65%
- O=c1nc(Oc2ccccc2)nc2ncccn12 — lower, 6.33%
- CCC(C)n1c(C)cc(=O)n1C(C)CC (stereo unspecified) — lower, -3.12%
- CC1=NC(C)(C)CC2CCC(O)C12 (stereo unspecified) — lower, 14.19%
- Nc1nc(Cl)cc(Nc2ccccc2Cl)n1 — lower, -14.31%
- CCOC(=O)c1nn(-c2ccccc2)cc1O — lower, -6.89%
- Cc1c(NC(=O)Nc2c(Cl)cccc2Cl)c(=O)n(-c2ccccc2)n1C — higher, 19.34%
- CN(C)Cc1cc(C(F)(F)F)ccc1C(O)(c1ccccc1)c1ccccc1 — higher, 25.21%
- CCNc1nc(NC(C)C)nc(-c2ccncc2)n1 — higher, 20.87%
- Cc1nc(S)nc(O)c1CCC1OCCO1 — higher, 16.2%
- COC1=CC(C)C2CC3OC(O)CC4C(C)=C(OC)C(=O)C(C2(C)C1=O)C34C (stereo unspecified) — lower, 8.16%
- O=C(O)c1ccccc1-n1c2ccccc2c2ccccc21 — lower, 8.61%
- ClCC(CNCc1ccccc1)c1ccccc1 (stereo unspecified) — lower, 2.14%
- CSc1nc2cc(S(=O)(=O)N3CCCCC3)ccc2s1 — lower, -5.16%
- NC(CSC1(c2cccc3ccccc23)c2ccccc2-c2ccccc21)C(=O)O (stereo unspecified) — lower, 11.91%
- Br.C=CC1CN2CCC1CC2C(O)c1ccnc2ccc(OC)cc12 (stereo unspecified) — higher, 19.88%
- Cc1ccc([N+](=O)[O-])cc1NC(=O)Nc1cccc(F)c1 — lower, 12.57%
- Nc1nc(S)c2ncn(C3CCCC3)c2n1 — higher, 28.61%
- Nn1c(Cc2ccccc2)nnc1Cc1ccccc1 — lower, 7.54%
- N=C1OC(c2ccccc2)C(O)=C1O (stereo unspecified) — lower, 6.44%
- CCOC(=O)c1cc(OCC)c2c(ccc3ccccc32)n1 — lower, -5.38%
- O=C(O)CSc1nc2ccccc2s1 — lower, -1.07%
- CN(C)c1nc(Cl)nc2c1nc(Cl)n2C1CCCCO1 (stereo unspecified) — lower, 0.82%
- CC(C)c1ccc(-c2nc3ccccc3s2)cc1 — lower, 4.9%
- CN(C(=O)c1ccncc1)c1ccccc1 — lower, 4.79%
- Cc1cc(NC(=O)OC(C)C)ccc1-c1ccc(NC(=O)OC(C)C)cc1C — lower, -11.78%
- C(=C\CSc1ccccn1)/CSc1ccccn1 — higher, 25.2%
- CC(=O)[C@@]1(O)[C@H](C)C[C@H]2[C@@H]3C=C(C)C4=Cc5c(cnn5-c5ccccc5)C[C@]4(C)[C@H]3[C@@H](O)C[C@@]21C — lower, 12.99%
- NS(=O)(=O)c1ccc(/N=N/c2ccc(O)[nH]c2=O)cc1 — higher, 20.92%
- CCSc1nc(C)cc(S)n1 — higher, 21.23%
